Data taken from PubChem BioAssay AID2685 (National Center for Advancing Translational Sciences (NCATS), 2010).
This is one part of the list. These are further read-outs of the screen, such as a control signal, another cell line or another target. No call is given for them. Compounds called inactive in the main read-out are mostly missing here. The note in brackets gives the kind of curve behind each potency; many fits are weak.

Assay: qHTS Assay for Lipid Storage Modulators in Drosophila S3 Cells;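 on cell number change: cells counted by Cell Tracker Red CMTPX staining in the red channel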
Details: BODIPY lipid droplet fluorescence, 18-24 h; for cell number change: measured here: cell count max response, cells fed with added oleic acid
Method in brief: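 Laser-scanning cytometry quantifies lipid droplet accumulation (500–530 nm total intensity; droplet/cell object ratio) in oleic acid-fed (400 uM added) Drosophila S3 cells treated with a concentration series. 20 uM Triacsin C defined 100% inhibition.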

[1] = measured here: lipid fluorescence (Fed channel) AC50, cells fed with added oleic acid
[2] = measured here: cell number channel AC50, cells fed with added oleic acid

Compound: Cc1cc(C(F)(F)F)nc(SCC(=O)NC2CCCCC2)n1
- cell number change: -2.63%

Compound: O=C(O)C1C2C=CC(C2)C1C(=O)NCc1ccccn1 (stereo unspecified)
- cell number change: 6.62%
- AC50 [1]: 0.092 µM [falling, full curve, poor fit]

Compound: COc1ccc2nc(Nc3nc(C)c(CCC(C)C)c(=O)[nH]3)nc(C)c2c1
- cell number change: -3.5%
- AC50 [1]: 0.206 µM [rising, full curve]

Compound: Cc1cc(-c2ccccc2)nc(SCc2ccc(C(=O)O)o2)n1
- cell number change: -54.6%
- AC50 [2]: 13 µM [falling, partial curve]
- AC50 [1]: 18.4 µM [falling, partial curve]

Compound: COC(=O)c1ccccc1NC(=O)CN(C)Cc1ccccc1
- cell number change: 47.9%
- AC50 [2]: 2.91 µM [rising, partial curve]
- AC50 [1]: 23.1 µM [rising, partial curve]

Compound: COc1ccc(OC)c(N2CC(O)(c3cccs3)[N+]3=C2SCCC3)c1 (stereo unspecified)
- cell number change: 5.65%

Compound: COc1ccc(C(=O)NC2CCCc3c2cnn3-c2cccc(C)c2C)c(OC)n1 (stereo unspecified)
- cell number change: -55.9%
- AC50 [2]: 1.84 µM [falling, full curve]
- AC50 [1]: 29.1 µM [falling, single point]

Compound: O=C(NC(Cc1c[nH]c2ccccc12)C(=O)N/N=C/c1ccc(Cl)cc1)c1cccs1 (stereo unspecified)
- cell number change: 64%
- AC50 [1]: 23.1 µM [rising, partial curve]

Compound: Cc1cccc(N(CC(O)CN2CCCC2)S(=O)(=O)c2ccccc2)c1 (stereo unspecified)
- cell number change: 7.14%

Compound: O=C(O)c1ccc(NC(=S)N2CCCCC2)cc1
- cell number change: -15.5%
- AC50 [1]: 2.59 µM [falling, single point]

Compound: Cc1nn(-c2ccccc2)c2sc(-c3n[nH]c(=S)o3)cc12
- AC50 [1]: 6.51 µM [rising, single point]

Compound: O=C(NCCC1CCCCN1S(=O)(=O)c1ccc(Cl)cc1)C(=O)NCCN1CCOCC1 (stereo unspecified)
- AC50 [2]: 3.26 µM [falling, single point]
- AC50 [1]: 0.92 µM [falling, full curve]

Compound: CCCn1nc(NS(=O)(=O)c2cccc3nonc23)c2cc3ccccc3nc21
- cell number change: -4.28%
- AC50 [1]: 23.1 µM [falling, single point]

Compound: Cc1ccccc1C(=O)N1CCN(c2ccc(NC(=O)c3ccc4c(c3)OCCO4)cc2)CC1
- cell number change: -5.96%

Compound: COC(=O)Cn1c2ccccc2c2nc(=O)cc(C)n21
- cell number change: 6.37%
- AC50 [2]: 0.103 µM [falling, partial curve, poor fit]
- AC50 [1]: 0.092 µM [falling, partial curve, poor fit]

Compound: O=C(O)CCC(=O)Nc1cccc(-c2csc(-c3ccccc3)n2)c1
- cell number change: -13.2%
- AC50 [1]: 32.6 µM [falling, single point]

Compound: Cc1ccc(NC(=O)c2ccccc2F)cc1S(=O)(=O)N1CCCCCC1
- cell number change: 35.5%
- AC50 [2]: 0.082 µM [rising, full curve]
- AC50 [1]: 0.651 µM [rising, partial curve]

Compound: COc1ccc(C(=O)Oc2cc(C)[nH]c(=O)c2[N+](=O)[O-])c(OC)c1
- cell number change: 5.39%
- AC50 [1]: 6.51 µM [falling, single point]

Compound: C=CCNC(=O)C(=O)NCCOc1ccccc1Cl
- AC50 [2]: 3.26 µM [rising, single point]

Compound: CCOc1ccccc1NC(=O)C1C2CCC3C(CCC21)C3(Cl)Cl (stereo unspecified)
- cell number change: 9.22%
- AC50 [1]: 15.8 µM [rising, single point]

Compound: COC(=O)C(Cc1ccccc1)NC(=O)CC(C)CC(=O)Nc1ccc(OC)cc1OC (stereo unspecified)
- cell number change: -29.6%
- AC50 [1]: 10.3 µM [falling, partial curve]

Compound: CCN(CC)S(=O)(=O)c1ccc(-c2ccc(S(=O)(=O)N(CC)CC)cc2)cc1
- cell number change: 8.6%
- AC50 [1]: 9.2 µM [rising, partial curve]

Compound: CCCc1ccc2oc(C(=O)NCCc3cnn(C)c3)c(C)c2c1
- cell number change: 10.2%
- AC50 [1]: 0.00461 µM [rising, full curve, poor fit]

Compound: COc1cc(/C=N\NC(=O)c2ccc(-c3ccccc3)cc2)cc(Br)c1O
- cell number change: -47.8%
- AC50 [2]: 14.6 µM [falling, partial curve]
- AC50 [1]: 9.2 µM [falling, partial curve]

Compound: COC(=O)c1cc2nc(-c3ccccc3)cc(C)n2n1
- cell number change: 14%
- AC50 [1]: 9.2 µM [rising, partial curve]

Compound: COc1nc(Nc2cccc(C)c2)nc(N2CCCCC2)n1
- cell number change: -39.6%
- AC50 [2]: 18.4 µM [falling, single point]

Compound: COC(=O)CCC(C)N1CCC(Oc2ccc(C(=O)NCc3ccccn3)cc2)CC1 (stereo unspecified)
- cell number change: 15.9%

Compound: COC(=O)c1cn(C(=O)c2ccc(OC)c(OC)c2)c2ccccc12
- cell number change: -13%

Compound: CCOC(=O)C1=C(CNCCOc2ccc(OC)cc2)NC(=O)NC1c1ccc2c(c1)OCO2 (stereo unspecified)
- cell number change: -0.11%
- AC50 [1]: 6.51 µM [rising, single point]

Compound: CC[n+]1ccc(/C=C/c2c[nH]c3ccccc23)cc1
- cell number change: -5.9%
- AC50 [1]: 29.1 µM [falling, single point]

Compound: CC(C)Cc1nnc(NC(=O)CCC(=O)N2CCN(S(=O)(=O)c3ccccc3)CC2)s1
- cell number change: 333%
- AC50 [2]: 6.51 µM [rising, partial curve]
- AC50 [1]: 23.1 µM [rising, single point]

Compound: O=C(/C=C/c1ccccc1Br)c1ccc2c(c1)OCO2
- cell number change: 19.3%
- AC50 [1]: 29.1 µM [falling, single point]

Compound: COc1cc(NC(=O)COc2ccc(C)c(C)c2)ccc1NC(=O)c1ccco1
- cell number change: -25%

Compound: CC1(C)CC(C(CC(=O)O)c2ccccc2)CCO1 (stereo unspecified)
- cell number change: 32%
- AC50 [2]: 29.1 µM [rising, single point]
- AC50 [1]: 29.1 µM [rising, single point]

Compound: CC(C)Cc1cc(C(=O)Nc2sc3c(c2C#N)CCC3)no1
- AC50 [2]: 0.231 µM [rising, full curve, poor fit]

Compound: O=C(COC(=O)CC1CC2CCC1C2)Nc1c(F)cccc1F (stereo unspecified)
- cell number change: -25.4%

Compound: CCOc1ccc(/C=C2\SC(=S)N(CC(=O)N(CCO)C(C)(C)C)C2=O)cc1
- cell number change: -42.3%
- AC50 [2]: 23.1 µM [falling, partial curve, poor fit]
- AC50 [1]: 29.1 µM [falling, single point]

Compound: O=C(COC(=O)c1c(F)cccc1F)Nc1ccc2c(c1)OCO2
- cell number change: -15.3%

Compound: COC(=O)CN1C(=O)CC(C)(C)S(=O)c2ccccc21 (stereo unspecified)
- cell number change: -48.9%
- AC50 [2]: 16.4 µM [falling, single point]
- AC50 [1]: 8.2 µM [falling, partial curve]
